Data as given in US20250099448A1, “HETEROCYCLIC COMPOUNDS” (Hoffmann-La Roche Inc., priority 2022, published 2025).

Chains of the proteins cited; added tags and fusions are not shown.
UniProt Q99685, whole entry: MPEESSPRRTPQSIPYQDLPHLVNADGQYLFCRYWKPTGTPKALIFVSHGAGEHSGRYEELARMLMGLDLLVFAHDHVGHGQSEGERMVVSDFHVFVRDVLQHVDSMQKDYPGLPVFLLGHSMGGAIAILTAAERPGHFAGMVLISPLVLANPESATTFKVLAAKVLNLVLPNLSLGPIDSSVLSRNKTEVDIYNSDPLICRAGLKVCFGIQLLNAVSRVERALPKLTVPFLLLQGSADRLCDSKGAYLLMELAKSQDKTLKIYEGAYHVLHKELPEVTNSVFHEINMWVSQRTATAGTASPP

Target: MAGL protein (Homo sapiens, UniProt Q99685)
Assay: 2-AG assay: MAGL inhibitory activity by hydrolysis of 2-arachidonoylglycerol to arachidonic acid, followed by mass spectrometry
Conditions: read-out: IC50 MAGL, 8 μM 2-arachidonoylglycerol, 15 min preincubation, 30 min reaction at RT, RapidFire MS readout
Description: Compounds of formula (I) were profiled for MAGL inhibitory activity by determining the enzymatic activity by following the hydrolysis of the natural substrate 2-arachidonoylglycerol (2-AG) resulting in arachidonic acid, which can be followed by mass spectrometry. This assay is hereinafter abbreviated “2-AG assay”. The 2-AG assay was carried out in 384 well polypropylene assay plates. Compound dilutions were made in 100% DMSO in a polypropylene plate in 3-fold dilution steps to give a final concentration range in the assay from 12.5 μM to […]. Compound dilutions were added to MAGL protein in assay buffer (50 mM TRIS, 1 mM EDTA, 0.01% (v/v) Tween-20, 2.5% (v/v) DMSO). After shaking, the plate was incubated for 15 min at RT. To start the reaction, 2-arachidonoylglycerol in assay buffer was added. The final concentrations in the assay was […] for MAGL protein and 8 μM 2-arachidonoylglyerol. After shaking and 30 min incubation at RT, the reaction was quenched by the addition of two assay volumes of acetonitrile containing 4 μM of d8-arachidonic acid. The amount of arachidonic acid formed was traced by an online SPE system (Agilent Rapidfire) coupled to a triple quadrupole mass spectrometer. […] The activity of the compounds was calculated based on the ratio of intensities [arachidonic acid/d8-arachidonic acid].

| Compound | IC50 |
| --- | --- |
| N#Cc1cnn(CC2CC3(C2)CN(C(=O)N2CC4(CC(c5nc(C6CC(F)(F)C6)n[nH]5)C4)C2)C3)c1 | 2.01 µM |
| Cc1nc(-c2ccc(C3CN(C(=O)N4CC5(CC(c6nnc(C7CC7)[nH]6)C5)C4)C3)cc2)c(C)s1 | 0.00018 µM |

The structures given here were assigned with low confidence; some may be wrong.
